According to PubChem BioAssay AID743266 (National Center for Advancing Translational Sciences (NCATS), 2014):
Out of some 410,000 compounds screened, about 310 (0.076%) were called active. This list was built around the results that the source calls inconclusive (neither active nor inactive); the mix of calls is not that of the screen. Calls come from the whole dose curve; as a rule, active = well fitted activation curve with a large enough effect; inconclusive = small, poorly fitted or top-dose-only effect, or another doubt; inactive = no such curve, though single readings can be large or run the other way. Potencies beside an inconclusive call are fits to weak or partial responses and may not hold up.

By UniProt entry, the sequences of proteins in these tests, tags left out. Where a name states a change or a piece, a line headed by the entry shows the natural chain unless it says otherwise.
UniProt Q03431: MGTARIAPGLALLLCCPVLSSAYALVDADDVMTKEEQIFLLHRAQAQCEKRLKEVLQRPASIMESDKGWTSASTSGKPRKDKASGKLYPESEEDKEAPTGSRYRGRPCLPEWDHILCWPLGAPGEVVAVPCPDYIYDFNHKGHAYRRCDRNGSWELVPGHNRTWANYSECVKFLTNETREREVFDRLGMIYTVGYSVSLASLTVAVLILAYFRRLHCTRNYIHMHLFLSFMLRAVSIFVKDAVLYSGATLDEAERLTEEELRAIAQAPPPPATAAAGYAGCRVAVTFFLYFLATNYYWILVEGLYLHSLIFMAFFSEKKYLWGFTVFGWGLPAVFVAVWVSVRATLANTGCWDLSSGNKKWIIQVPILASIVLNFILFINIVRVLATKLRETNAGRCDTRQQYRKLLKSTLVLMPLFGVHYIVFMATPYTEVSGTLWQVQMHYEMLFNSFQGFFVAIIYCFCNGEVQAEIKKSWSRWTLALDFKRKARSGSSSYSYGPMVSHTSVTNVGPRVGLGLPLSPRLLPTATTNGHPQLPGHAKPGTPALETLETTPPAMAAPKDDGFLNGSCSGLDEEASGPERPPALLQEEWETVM

Each compound was assayed against Parathyroid hormone/parathyroid hormone-related peptide receptor (Homo sapiens) (UniProt Q03431) (assay: qHTS for PTHR1 Agonists: Primary Screen). Conditions: HEK293 GP2 PTHR1 cells, GloSensor cAMP luminescence, 1 h; activation: at 115 µM (top of the series) unless noted; series mostly up to 115 µM.
In short: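 HEK-293-derived GP2 cells expressing PTHR1 and a GloSensor cAMP reporter, 3,000/well, plated overnight, given luciferin plus IBMX (each 0.5 mM as added) for 1 h at 37 °C, then compound for 1 h at 37 °C. Luminescence was read after 15 min at room temperature.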
Note: nearly all actives have a fitted effect of over 55% in size.
Potency is the fitted concentration of half-maximal effect.

Structure (SMILES)	Potency	activation
CC1CCN(S(=O)(=O)c2csc(C(N)=O)c2)CC1	inconclusive: 126 µM [activator, single point]	
CC(=O)Nc1cccc(-c2csc(NCc3ccccc3)n2)c1	inconclusive: 56.2 µM [activator, partial curve, poor fit]	
CCOC(=O)c1c(N)sc(C(O)(C(F)(F)F)C(F)(F)F)c1-c1ccc(F)cc1		inconclusive: 104% [activator] [at 57.5 µM]
O=C1OC(c2ccccc2)=N/C1=C\C=C\c1ccccc1[N+](=O)[O-]		inconclusive: 32.7% [activator]
Cc1[nH]c2ccccc2c1C1C(c2ccccc2)=NN=C(C(C)C)N1O (configuration not stated)	inconclusive: 5.62 µM [activator, full curve, poor fit]	
COC(=O)c1ccc(NC(=O)c2cc3sccc3n2C)cc1	inactive	
Cc1cc(NC(=O)Cn2cc(C(F)(F)F)cc(Cl)c2=O)no1		inconclusive: 35% [activator] [at 57.5 µM]
Cc1ccc(S(=O)(=O)N2CCC(C(=O)OCC(=O)NCc3ccco3)CC2)cc1C	inconclusive: 31.6 µM [activator, partial curve, poor fit]	
CCCC12CN3CC(CCC)(CN(C1)C3c1ccc(OCc3ccccc3)cc1)C2=O (configuration not stated)	inconclusive: 112 µM [activator, single point]	
COc1cc(/C=C/C(=O)O)cc(S(=O)(=O)Nc2ccccc2C(=O)NCc2ccco2)c1OC	inconclusive: 126 µM [activator, single point]	
O=c1c2c3nc4ccccc4nc3n(Cc3ccccc3)c2ncn1Cc1ccco1	inactive	
COc1ccc2c(c1)c(CC(=O)OCC(N)=O)c(C)n2C(=O)c1ccc(Cl)cc1	inactive	
CSc1ccccc1NC(=O)CN1c2ccccc2CC1C (configuration not stated)		inconclusive: 33.8% [activator]
CSCC[C@H](NC(=O)C1CCC(CNC(=O)[C@@H]2CCCN2C(=O)OC(C)(C)C)CC1)C(=O)O (some centres not stated)	inconclusive: 126 µM [activator, single point]	
Cc1cc2nn(-c3ccccc3)nc2cc1NC(=O)Cc1ccc(Cl)cc1	inconclusive: 50.1 µM [activator, single point]	
O=c1oc(-c2ccc(O)c(O)c2)cc2cccc(O)c12	inactive	
CCN1C(=O)[C@H]2[C@H]3CN=C(SC)N3[C@@](CC)(C(=O)OC)[C@H]2C1=O		inconclusive: 38.2% [activator]
Cc1cn2c(=O)cc(COc3ccc(C(C)(C)C)cc3)nc2s1	inactive	
COc1ccc(CCN(Cc2nc3ccccc3c(=O)[nH]2)C(=O)c2ccco2)cc1	inconclusive: 0.193 µM [activator, full curve, poor fit]	
COCCN1C(=O)C(=O)/C(=C(/O)c2ccc(C)cc2)C1c1ccccn1 (configuration not stated)	inconclusive: 79.4 µM [activator, partial curve, poor fit]	
O=C1c2cccc3c([N+](=O)[O-])ccc(c23)C(=O)N1Cc1cccnc1	inactive	

Structure (SMILES)	Potency	activation
CC1CC(NC(=O)Cc2ccc(Br)cc2)CC(C)(C)C1 (configuration not stated)		inconclusive: -21% [activator] [at 57.5 µM]
CC(=O)Nc1ccc(NCC(=O)c2ccccc2)cc1	inconclusive: 141 µM [activator, single point]	
COc1ccc(N2CCN(c3ccc(-c4nc(-c5ccccc5C)no4)cc3[N+](=O)[O-])CC2)cc1	inactive	
CN1C[C@H]2CON(C)[C@H]2C[C@H]1c1cccc(-c2ccc(C#N)cc2)c1	inactive	
CCCCNC(=O)CN(C1CCCCC1)S(C)(=O)=O	inconclusive: 50.1 µM [activator, single point]	
Cn1c(=O)c2c(ncn2CC(=O)N2CCN(c3cccc(Cl)c3)CC2)n(C)c1=O	inconclusive: 2.82 µM [activator, partial curve]	
CCOC(=O)N1CCC(Nc2c(NCCCOC)c(=O)c2=O)CC1	inconclusive: 22.4 µM [activator, single point]	
COc1cc(-c2nc(C)c(C(C)=O)n2O)ccc1OCC(=O)Nc1ccc(Cl)cc1		inconclusive: 0.259% [activator]
COc1cc(NC(=O)n2ncc3cc(Cl)ccc32)cc(OC)c1	inconclusive: 100 µM [activator, single point]	
Cc1ccc(-n2c(C)c3c(C)nnc(C)c3c2C)cc1C	inconclusive: 35.5 µM [activator, single point]	
Cc1ccc(C(=O)NC(C)c2ccc(F)cc2)cc1 (configuration not stated)	inactive	
O=C(c1cccs1)N1CCc2c([nH]c3ccccc23)C1c1ccccn1 (configuration not stated)	inconclusive: 3.55 µM [activator, partial curve, poor fit]	
Cn1c(N/N=C2\CCCc3ccccc32)nc2c1c(=O)n(Cc1ccc(F)cc1)c(=O)n2C	inconclusive: 25.1 µM [activator, partial curve]	
CCOc1ccc(Nc2nnc(SCc3nc4ccccc4c(=O)[nH]3)s2)cc1	inconclusive: 126 µM [activator, single point]	
Cn1cc(CN2CCC(n3nccc3NC(=O)c3ccccc3Cl)CC2)c2ccccc21	inconclusive: 56.2 µM [activator, partial curve, poor fit]	
Cc1cccc2c1N(CCCOc1ccccc1)C(=O)C2=O	inactive	
CC1(C(=O)NS(=O)(=O)c2ccc(F)cc2F)CCN1C(=O)C1CCCCC1 (configuration not stated)	inconclusive: 22.4 µM [activator, partial curve, poor fit]	
O=C1NC2(CCCCCC2)Cc2ccccc21	inconclusive: 35.5 µM [activator, single point]	
COc1ccccc1CNCC(O)(c1ccc(Cl)cc1)c1ccc(Cl)cc1	inactive	
O=C(O)c1cccc(NC(=S)NC(NC(=O)c2cccc([N+](=O)[O-])c2)C(Cl)(Cl)Cl)c1 (configuration not stated)	inactive	
CC[C@]12c3[nH]c4ccccc4c3CCN1C(=O)C(CC(=O)NC/C=C(\C)CCC=C(C)C)C[C@@H]2C(=O)N1CCN(C(=O)c2ccco2)CC1 (some centres not stated)	inconclusive: 50.1 µM [activator, partial curve, poor fit]	

Reformatted in markdown: 3 of the compounds above.

| Structure (SMILES) | Potency | activation |
| --- | --- | --- |
| CN1C[C@H]2CON(C)[C@H]2C[C@H]1c1cccc(-c2ccc(C#N)cc2)c1 | inactive |  |
| CCCCNC(=O)CN(C1CCCCC1)S(C)(=O)=O | inconclusive: 50.1 µM [activator, single point] |  |
| Cn1c(=O)c2c(ncn2CC(=O)N2CCN(c3cccc(Cl)c3)CC2)n(C)c1=O | inconclusive: 2.82 µM [activator, partial curve] |  |
